Laboratory results from patent publication US12472213B2, “Strains of Lactobacillus delbrueckii which inhibit Porphyromonas gingivalis” (Trustees of Tufts College, priority 2019, dated 2025).
Read-outs that look alike come from different tables or passages of the source. At least one compound was matched to its structure with a doubt left.

Tested on: Lactobacillus delbrueckii STYM1 strain pyruvate oxidase (L. delbrueckii Pox, LDBND_1487), wild type, C-terminal His6
Test: Pyruvate oxidase activity assay and kinetic parameters (oxidative coupling, H2O2 production, A550)
Assay type: biochemical
Details: 25° C.
Method: The C-terminal primer encoded a glycine-serine linker followed by a 6-histidine tag and a stop codon. The PCR product was ligated into the pFLAG-CTC vector (Sigma) using the NdeI and XhoI restriction sites and transformed into DH5α E. coli resulting in the plasmid pFLAG-CTC_Pox. The construct was confirmed by PCR and sequencing. pFLAG-CTC_Pox was transformed into LOBSTR E. coli in which Pox was expressed as a C-terminal His6-Pox. A 6 mL starter culture was incubate at 37° C. overnight in LB supplemented with 100 μg/mL of ampicillin. The starter culture was diluted 1:100 into 40 mL of LB supplemented with 100 μg/mL of ampicillin and grown at 37° C. until the OD600 reached 0.4-0.8. The temperature was then shifted to 26° C. and the cells were incubated with 1 mM isopropyl-β-D-thiogalactopyranoside (IPTG) for 20 hours. The cells were harvested by centrifugation at 3,200×g for 10 minutes, resuspended in 1 mL PBS EDTA-free cOmplete protease inhibitor cocktail (Roche), and lysed by sonication on ice, as described above. The soluble cell lysate was harvested by centrifugation at 16,000×g for 15 minutes at 4° C. and filtered through a 0.22 μm filter to obtain cell-free soluble cell lysate. The soluble cell lysate was applied to a 1 mL bed volume of HisPure Ni-NTA resin (Thermo) and the eluate was applied a second time to the column to maximize protein binding. The column was washed twice with PBS containing 25 mM imidazole then bound protein was eluted from the column in PBS containing 250 mM imidazole. Protein purity was assessed by SDS-PAGE and Coomassie staining.
Pyruvate oxidase activity of recombinant Pox was assessed by an oxidative coupling reaction. […] Immediately upon addition of purified Pox, the formation of a quinoneimine dye was measured by an increase in the absorbance at 550 nm which was recorded every 30 seconds at room temperature. […] Pox activity is assessed by determining the change in absorbance at 550 nm per minute. […] Activity was determined according to the following equation: specific activity=[(ΔA550/min)(dilution factor)(total reaction volume)]/[(36.88)(0.5)(path length)(sample volume)(C)], where the total reaction volume is 1 ml, the millimolar extinction coefficient of quinoneimine dye is 36.88, the factor of 0.5 was determined based on the fact that 1 mol of hydrogen peroxide produces 0.5 mol of quinoneimine dye, the light path length is 1 cm, the sample volume is 0.1 ml, and C is the concentration of undiluted enzyme in mg/ml. […]
Pyruvate oxidase activity was measured as previously described (16). […] The formation of a quinoneimine dye at 25° C. was measured by an increase in absorbance at 550 nm and the specific activity was calculated as described. […]

With `CC(=O)C(=O)O` [pyruvate] the “kcat (with PE)” value (with 7.2 mM PE, 170 nM enzyme) was 6.85 s⁻¹, the Km (with 7.2 mM PE, 170 nM enzyme, read-out: km for pyruvate (with PE)) was 520 µM and the kcat (without PE, 1.76 μM enzyme) was 0.367 s⁻¹. It also gave a Km (without PE, 1.76 μM enzyme, phosphate 50 mM, pH 5.6, read-out: km for pyruvate) of 342 µM.
